Test results: patent US8501683B2, “Cycloundecadepsipeptide compounds and use of said compounds as a medicament” (priority 2008, dated 2013)
pEC50: −log10 of the molar value. At least one peptide structure holds a part that was inferred or is arguable (an end, a ring closure or a residue). Square brackets hold non-standard residues; d marks the D form. Peptide text beside a SMILES is read from it. MeBmt = C/C=C/C[C@@H](C)[C@@H](O)[C@H](NC)C(=O)O; NMeI = CC[C@H](C)[C@H](NC)C(=O)O; NMeL = CN[C@@H](CC(C)C)C(=O)O; NMeV = CN[C@H](C(=O)O)C(C)C; dHiv = CC(C)[C@@H](O)C(=O)O; dNMeA = CN[C@H](C)C(=O)O; Abu = CC[C@H](N)C(=O)O; Sar = CNCC(=O)O

The compounds below were run on hepatitis C virus genotype 1b Con1 replicon (assay: HCV replicon assay, replicon RNA by RT-qPCR in Huh 9-13 cells). Conditions: 50% inhibition of HCV replicon replication, 3 dose-response curves.
Type: cell-based

`C/C=C/C[C@@H](C)[C@@H](O)[C@H]1C(=O)N[C@@H](CC)C(=O)N(C)[C@H](C)C(=O)N(C)[C@@H](C(C)C)C(=O)N[C@@H]([C@@H](C)CC)C(=O)N(C)[C@@H](CC(C)C)C(=O)NCC(=O)O[C@H](C(C)C)C(=O)N(C)[C@@H](CC(C)C)C(=O)N[C@@H](CC(C)C)C(=O)N(C)[C@@H](C(C)C)C(=O)N1C` [(Ig), cyclo-(MeBmt-Abu-D-MeAla-MeVal-Ile-MeLeu-Gly-D-Hiv-MeLeu-Leu-MeVal)] (cyclo([Abu][dNMeA][NMeV]I[NMeL]G[dHiv][NMeL]L[NMeV][MeBmt])) and `C/C=C/C[C@@H](C)[C@@H](O)[C@H]1C(=O)N[C@@H](CC)C(=O)N(C)[C@H](C)C(=O)N(C)[C@@H]([C@@H](C)CC)C(=O)N[C@@H](CC(C)C)C(=O)N(C)[C@@H](CC(C)C)C(=O)NCC(=O)O[C@H](C(C)C)C(=O)N(C)[C@@H](CC(C)C)C(=O)N[C@@H](CC(C)C)C(=O)N(C)[C@@H](C(C)C)C(=O)N1C` [(Ii), cyclo-(MeBmt-Abu-D-MeAla-MeIle-Leu-MeLeu-Gly-D-Hiv-MeLeu-Leu-MeVal)] (cyclo([Abu][dNMeA][NMeI]L[NMeL]G[dHiv][NMeL]L[NMeV][MeBmt])) are within 0.2 log units of each other in pEC50: 7.48 for the first, 7.39 for the second.

`C/C=C/C[C@@H](C)[C@@H](O)[C@H]1C(=O)N[C@@H](C(C)C)C(=O)N(C)[C@H](C)C(=O)N(C)[C@@H](C(C)C)C(=O)N[C@@H](C(C)C)C(=O)N(C)CC(=O)NCC(=O)O[C@H](C(C)C)C(=O)N(C)[C@@H](CC(C)C)C(=O)N[C@@H](CC(C)C)C(=O)N(C)[C@@H](C(C)C)C(=O)N1C` [(Ik), cyclo-(MeBmt-Val-D-MeAla-MeVal-Val-Sar-Gly-D-Hiv-MeLeu-Leu-MeVal)] (cyclo(G[dHiv][NMeL]L[NMeV][MeBmt]V[dNMeA][NMeV]V[Sar])) showed a pEC50 of 7.12.
